Experimental data published in patent publication US20170233472A1.
Where a chain is given by its changes, count along the chain named. No constants are given. Whether binding was seen depends on the method and setting. Some binding calls cover weakened binding; strength is not graded here.

Protein sequences, listed by entry. Tags and fused reporters are not part of them. Lines headed by an entry give the natural chain unless they say otherwise; changes in a name come on top.
UniProt Q01973: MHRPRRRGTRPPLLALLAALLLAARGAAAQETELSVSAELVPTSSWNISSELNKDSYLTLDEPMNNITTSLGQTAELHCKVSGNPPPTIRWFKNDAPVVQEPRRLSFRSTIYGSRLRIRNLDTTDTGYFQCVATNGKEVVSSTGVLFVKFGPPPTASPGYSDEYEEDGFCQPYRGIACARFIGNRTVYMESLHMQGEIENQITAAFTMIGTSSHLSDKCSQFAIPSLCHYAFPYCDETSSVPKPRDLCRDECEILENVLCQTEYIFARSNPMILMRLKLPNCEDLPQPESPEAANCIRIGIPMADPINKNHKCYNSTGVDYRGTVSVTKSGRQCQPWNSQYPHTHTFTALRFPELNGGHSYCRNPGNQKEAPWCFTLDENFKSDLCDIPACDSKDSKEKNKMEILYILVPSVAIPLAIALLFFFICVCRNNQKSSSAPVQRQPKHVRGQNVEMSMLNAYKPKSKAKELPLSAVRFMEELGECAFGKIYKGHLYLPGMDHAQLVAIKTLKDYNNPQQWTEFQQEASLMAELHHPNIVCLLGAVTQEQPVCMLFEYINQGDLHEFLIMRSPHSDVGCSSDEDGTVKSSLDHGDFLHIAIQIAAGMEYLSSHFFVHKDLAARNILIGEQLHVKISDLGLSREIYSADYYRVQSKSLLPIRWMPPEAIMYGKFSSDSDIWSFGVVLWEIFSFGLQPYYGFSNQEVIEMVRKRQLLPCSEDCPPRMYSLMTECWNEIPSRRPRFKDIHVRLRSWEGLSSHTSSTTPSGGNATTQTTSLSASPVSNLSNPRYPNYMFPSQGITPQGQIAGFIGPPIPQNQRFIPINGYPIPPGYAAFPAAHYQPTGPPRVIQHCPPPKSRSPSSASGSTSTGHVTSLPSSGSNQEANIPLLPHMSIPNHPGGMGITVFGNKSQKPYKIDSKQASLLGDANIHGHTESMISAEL

B1: DART-1 (bispecific antibody)
chain 1: QLVLTQSPSASASLGSSVKLTCTLSSGHKTDTIDWYQQQPGKAPRYLMKLEGSGSYNKGSGVPDRFGSGSSSGADRYLTISSLQSEDEADYYCGTDYPGNYLFGGGTQLTVLGGGGSGGGGEVQLVESGGGLVQPGGSLRLSCAASGFTFSTYAMNWVRQAPGKGLEWVGRIRSKYNNYATYYADSVKGRFTISRDDSKNSLYLQMNSLKTEDTAVYYCVRHGNFGNSYVSWFAYWGQGTLVTVSSGGCGGGKVAALKEKVAALKEKVAALKEKVAALKE
chain 2: QAVVTQEPSLTVSPGGTVTLTCRSSTGAVTTSNYANWVQQKPGQAPRGLIGGTNKRAPWTPARFSGSLLGGKAALTITGAQAEDEADYYCALWYSNLWVFGGGTKLTVLGGGGSGGGGQEQLVESGGGLVQPGGSLRLSCAASGFTFSDYYMSWVRQAPGKGLEWVATIYPSSGKTYYADSVKGRFTISSDNAKNSLYLQMNSLRAEDTAVYYCARDSYADDAALFDIWGQGTTVTVSSGGCGGGEVAALEKEVAALEKEVAALEKEVAALEK
B2: DART-25 (bispecific antibody)
chain 1: B1 chain 1 with R76W
chain 2: B1 chain 2 with F186L, N195D, A215T
B3: DART-22 (bispecific antibody)
chain 1: B1 chain 1 with R76W
chain 2: B1 chain 2 with F186L
B4: DART-24 (bispecific antibody)
chain 1: B1 chain 1 with Y97N
chain 2: B1 chain 2 with A215T
B5: DART-17 (bispecific antibody)
chain 1: B1 chain 1
chain 2: B1 chain 2 with N195Y
B6: DART-4 (bispecific antibody)
chain 1: B1 chain 1 with S16G
chain 2: B1 chain 2
B7: DART-3 (bispecific antibody)
chain 1: B1 chain 1 with K49N
chain 2: B1 chain 2
B8: DART-2 (bispecific antibody)
chain 1: B1 chain 1 with R76W
chain 2: B1 chain 2
B9: DART-8 (bispecific antibody)
chain 1: B1 chain 1 with K19N
chain 2: B1 chain 2
B10: DART-6 (bispecific antibody)
chain 1: B1 chain 1 with S70I
chain 2: B1 chain 2
B11: DART-14 (bispecific antibody)
chain 1: B1 chain 1
chain 2: B1 chain 2 with F186L
B12: DART-10 (bispecific antibody)
chain 1: B1 chain 1 with Y97N
chain 2: B1 chain 2
B13: DART-9 (bispecific antibody)
chain 1: B1 chain 1 with N57T
chain 2: B1 chain 2
B14: DART-19 (bispecific antibody)
chain 1: B1 chain 1
chain 2: B1 chain 2 with D227Y
B15: DART-21 (bispecific antibody)
chain 1: B1 chain 1 with S70I
chain 2: B1 chain 2 with A215T
B16: DART-16 (bispecific antibody)
chain 1: B1 chain 1
chain 2: B1 chain 2 with A215T
B17: DART-20 (bispecific antibody)
chain 1: B1 chain 1 with R76W
chain 2: B1 chain 2 with A215T
B18: DART-18 (bispecific antibody)
chain 1: B1 chain 1
chain 2: B1 chain 2 with D227A
B19: DART-7 (bispecific antibody)
chain 1: B1 chain 1 with K19I
chain 2: B1 chain 2
B20: DART-29 (bispecific antibody)
chain 1: B1 chain 1 with R76W, Y97N
chain 2: B1 chain 2 with F186L, N195D, A215T
B21: DART-5 (bispecific antibody)
chain 1: B1 chain 1 with N57S
chain 2: B1 chain 2
B22: DART-26 (bispecific antibody)
chain 1: B1 chain 1 with R76W, Y97N
chain 2: B1 chain 2 with A215T
B23: DART-11 (bispecific antibody)
chain 1: B1 chain 1 with R76W, Y97N
chain 2: B1 chain 2

Target: His-tagged soluble human ROR1 (shROR1-His) (human) (UniProt Q01973)
Assay: sandwich ELISA (FIG. 11A)

binding	Binder
binds	B1

Target: His-tagged soluble human ROR1 (shROR1-His) (human) (UniProt Q01973)
Assay: ELISA, plate-coated shROR1-His, relative to DART-1

binding	Binder
binds	B2
binds	B3
binds	B4
binds	B5
binds	B6
binds	B7
binds	B8
binds	B9
binds	B10
binds	B11
binds	B12
binds	B13
binds	B14
binds	B15
binds	B16
binds	B17
binds	B18
binds	B19
binds	B20
binds	B21
binds	B22
binds	B23

Target: His-tagged soluble human ROR1 (shROR1-His) (human) (UniProt Q01973)
Assay: sandwich ELISA, coated shROR1-His, detection with biotinylated CD3

binding	Binder
binds	B1

Target: His-tagged soluble human ROR1 (shROR1-His) (human) (UniProt Q01973)
Assay: sandwich ELISA: plate coated with shROR1-His, serial dilutions of diabody, bound diabody detected with biotinylated CD3 and streptavidin-HRP; abs @450nm

binding	Binder
binds	B1
